Values from PubChem BioAssay AID1259425 (University of Nebraska Medical Center, 2018)
Here is one part, drawn at random, of about 14,000 deposited reagents. Reagents against one gene are numbered here. Not given: the time to read-out.

Purpose: 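Compare each knockdown with KSR1 silencing using changes in marker transcripts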 (primary screen)
Cell system: HCT116 human colon cancer cells
Reagents: siRNA pool against human genes, 50 nM siRNA
Measurement: 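After 50 nM siRNA pool, branched-DNA assay measures six marker transcripts per well, minus blank, normalised to the geometric mean of two housekeeping transcripts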
Reading the numbers: BNIP3L mRNA: higher = more BNIP3L transcript after knockdown; NDRG1 mRNA: higher = more NDRG1 transcript after knockdown; BNIP3 mRNA: higher = more BNIP3 transcript after knockdown; ALDOC mRNA: higher = more ALDOC transcript after knockdown; ACSL5 mRNA: higher = more ACSL5 transcript after knockdown

| Target gene | pool no. | BNIP3L mRNA, set 1 | NDRG1 mRNA, set 1 | BNIP3 mRNA, set 1 | ALDOC mRNA, set 1 | ACSL5 mRNA, set 1 |
| --- | --- | --- | --- | --- | --- | --- |
| B2M (beta-2-microglobulin) | 1 | 0.0717 | 0.168 | 0.382 | 0.0403 | 0.111 |
| GTPBP4 (GTP binding protein 4) | 1 | 0.196 | 0.307 | 0.704 | 0.0235 | 0.281 |
| ZW10 (zw10 kinetochore protein) | 1 | 0.118 | 0.198 | 0.439 | 0.0216 | 0.23 |
| MS4A5 (membrane spanning 4-domains A5) | 1 | 0.169 | 0.201 | 0.2 | 0.0159 | 0.304 |
| FAM194C (family with sequence similarity 194 member C) | 1 | 0.191 | 0.256 | 0.246 | 0.0601 | 0.47 |
| GPR156 (G protein-coupled receptor 156) | 1 | 0.17 | 0.308 | 0.278 | 0.0926 | 0.247 |
| CFAP91 (cilia and flagella associated protein 91) | 1 | 0.155 | 0.0998 | 0.351 | 0.0388 | 0.108 |
| TNNT1 (troponin T1, slow skeletal type) | 1 | 0.0653 | 0.274 | 0.278 | 0.0341 | 0.167 |
| ZNF672 (zinc finger protein 672) | 1 | 0.0105 | 3.31 | 0.5 | 0.0382 | 0.741 |
| GNB5 (G protein subunit beta 5) | 1 | 0.163 | 1.93 | 0.734 | 0.105 | 0.416 |
| SELPLG (selectin P ligand) | 1 | 0.115 | 0.152 | 0.291 | 0.0202 | 0.12 |
| ABCE1 (ATP binding cassette subfamily E member 1) | 1 | 0.102 | 0.391 | 0.439 | 0.0117 | 0.231 |
| PROM1 (prominin 1) | 1 | 0.135 | 0.336 | 0.241 | 0.0377 | 0.25 |
| PPIL4 (peptidylprolyl isomerase like 4) | 1 | 0.103 | 0.213 | 0.15 | 0.025 | 0.21 |
| ZNF212 (zinc finger protein 212) | 1 | 0.0692 | 0.167 | 0.369 | 0.0197 | 0.166 |
| GABARAPL2 (GABA type A receptor associated protein like 2) | 1 | 0.0514 | 0.243 | 0.231 | 0.0425 | 0.13 |
| RBBP9 (RB binding protein 9, serine hydrolase) | 1 | 0.187 | 0.346 | 0.382 | 0.0233 | 0.248 |
| VAC14 (VAC14 component of PIKFYVE complex) | 1 | 0.412 | 5.01 | 1.09 | 0.0545 | 1.15 |
| VAC14 (VAC14 component of PIKFYVE complex) | 2 | 0.109 | 0.355 | 0.162 | 0.00494 | 0.116 |
| NFATC4 (nuclear factor of activated T cells 4) | 1 | 0.198 | 0.233 | 0.458 | 0.0231 | 0.153 |
| CCDC81 (coiled-coil domain containing 81) | 1 | 0.0846 | 0.149 | 0.243 | 0.0256 | 0.157 |
| FGGY (FGGY carbohydrate kinase domain containing) | 1 | 0.0956 | 0.0955 | 0.355 | 0.0234 | 0.0988 |
| APOM (apolipoprotein M) | 1 | 0.109 | 0.105 | 0.437 | 0.0295 | 0.12 |
| TMEM187 (transmembrane protein 187) | 1 | 0.0718 | 0.393 | 0.329 | 0.0789 | 0.21 |
| TNNT2 (troponin T2, cardiac type) | 1 | 0.0676 | 0.189 | 0.27 | 0.0331 | 0.126 |
| MCHR2 (melanin concentrating hormone receptor 2) | 1 | 0.171 | 0.212 | 0.314 | 0.0653 | 0.184 |
| CBX3 (chromobox 3) | 1 | 0.0943 | 0.113 | 0.316 | 0.0196 | 0.1 |
| HMGXB4 (HMG-box containing 4) | 1 | 0.0684 | 0.153 | 0.188 | 0.0123 | 0.239 |
| BLTP2 (bridge-like lipid transfer protein family member 2) | 1 | 0.19 | 0.199 | 0.353 | 0.0337 | 0.174 |
| TOR2A (torsin family 2 member A) | 1 | 0.169 | 0.2 | 0.337 | 0.0538 | 0.0748 |
| SLC9A7 | 1 | 0.11 | 0.234 | 0.278 | 0.0443 | 0.253 |
| GPR171 (G protein-coupled receptor 171) | 1 | 0.306 | 0.511 | 0.821 | 0.0926 | 0.258 |
| ASMTL (acetylserotonin O-methyltransferase like) | 1 | 0.0707 | 0.232 | 0.417 | 0.0604 | 0.145 |
| FOXB1 (forkhead box B1) | 1 | 0.199 | 0.214 | 0.414 | 0.0299 | 0.123 |
| FLACC1 (flagellum associated containing coiled-coil domains 1) | 1 | 0.158 | 0.219 | 0.306 | 0.0374 | 0.189 |
| PLXNA4 (plexin A4) | 1 | 0.0601 | 0.0855 | 0.315 | 0.00843 | 0.117 |
| PAPOLB (poly(A) polymerase beta) | 1 | 0.13 | 0.37 | 0.498 | 0.0408 | 0.427 |
| TMEM141 (transmembrane protein 141) | 1 | 0.0879 | 0.193 | 0.355 | 0.0894 | 0.191 |
| FOXC1 (forkhead box C1) | 1 | 0.089 | 0.175 | 0.198 | 0.000453 | 0.229 |
| HCP5 (HLA complex P5) | 1 | 0.103 | 0.174 | 0.261 | 0.0374 | 0.307 |
| GTF2F2 (general transcription factor IIF subunit 2) | 1 | 0.0664 | 0.14 | 0.252 | 0.02 | 0.168 |
| NDUFS7 (NADH:ubiquinone oxidoreductase core subunit S7) | 1 | 0.218 | 0.663 | 0.474 | 0.0502 | 0.174 |
| TRIM24 (tripartite motif containing 24) | 1 | 0.154 | 0.138 | 0.33 | 0.0499 | 0.202 |
| SLC2A5 | 1 | 0.122 | 0.154 | 0.29 | 0.108 | 0.225 |
| MAPK8IP2 (mitogen-activated protein kinase 8 interacting protein 2) | 1 | 0.199 | 0.218 | 0.38 | 0.00743 | 0.609 |
| STAT3 (signal transducer and activator of transcription 3) | 1 | 0.187 | 0.37 | 0.618 | 0.0494 | 0.153 |
| IFITM2 (interferon induced transmembrane protein 2) | 1 | 0.0702 | 0.0918 | 0.204 | 0.0209 | 0.117 |
| GSTM1 (glutathione S-transferase mu 1) | 1 | 0.0876 | 0.194 | 0.145 | 0.0139 | 0.182 |
| SAC3D1 (SAC3 domain containing 1) | 1 | 0.102 | 0.288 | 0.429 | 0.0331 | 0.159 |
| HNF1A (HNF1 homeobox A) | 1 | 0.176 | 0.217 | 0.327 | 0.00848 | 0.225 |
| CENPB (centromere protein B) | 1 | 0.144 | 0.159 | 0.308 | 0.0183 | 0.11 |
| HECW1 | 1 | 0.0341 | 0.0743 | 0.237 | 0.0334 | 0.0912 |
| FBXW4 (F-box and WD repeat domain containing 4) | 1 | 0.0468 | 0.28 | 0.204 | 0.0249 | 0.202 |
| RNASE3 (ribonuclease A family member 3) | 1 | 0.198 | 0.583 | 0.346 | 0.0256 | 0.307 |
| COX7C (cytochrome c oxidase subunit 7C) | 1 | 0.117 | 0.327 | 0.371 | 0.0416 | 0.249 |
| PDE10A (phosphodiesterase 10A) | 1 | 0.136 | 0.109 | 0.255 | 0.0117 | 0.0609 |
| KLF11 (KLF transcription factor 11) | 1 | 0.0497 | 0.0801 | 0.246 | 0.0173 | 0.101 |
| ZNF658 (zinc finger protein 658) | 1 | 0.125 | 0.314 | 0.451 | 0.056 | 0.0684 |
| B4GALT6 (beta-1,4-galactosyltransferase 6) | 1 | 0.0725 | 0.121 | 0.226 | 0.0382 | 0.126 |
| P3H2 (prolyl 3-hydroxylase 2) | 1 | 0.113 | 0.344 | 0.339 | 0.0258 | 0.251 |
| SQOR (sulfide quinone oxidoreductase) | 1 | 0.0984 | 0.121 | 0.291 | 0.0337 | 0.127 |
| ZSCAN21 (zinc finger and SCAN domain containing 21) | 1 | 0.197 | 0.295 | 0.447 | 0.0196 | 0.303 |
| MAP3K13 (mitogen-activated protein kinase kinase kinase 13) | 1 | 0.109 | 0.427 | 0.28 | 0.00907 | 0.159 |
